# Experimental data published in patent publication US20230140276A1, “TRICYCLIC COMPOUNDS, PREPARATION METHOD AND MEDICAL USE THEREOF” (HEFEI INSTITUTE OF PHARMACEUTICAL INDUSTRY CO., LTD., priority 2020, published 2023).
# System: histamine-induced skin vascular permeability
# Assay: Inhibitory effect on histamine-induced vascular permeability in mice
# Format: in vivo, ICR mice
# Method: Intragastric administration was performed 1 hour before modeling. The model group was given the corresponding solvent. […] 10% sodium sulfide was used to depilate the back of mice (3 cm×3 cm). The mice were injected 1 ug/0.1 mL of histamine phosphate physiological saline solution into the depilation site one hour after the administration, and injected 0.25% Evans Blue solution 4 ml/kg from the tail vein immediately after the injection. After 30 minutes, the mice were dislocated and sacrificed. The blue-stained part of the skin was removed and perforated (diameter 15 mm), cut into pieces and soaked in 1 ml of acetone-saline (7:3) solution. After 24 h, it was centrifuged (3000 r/min, 10 min) to take the supernatant. The absorbance of the sample was measured with an ultraviolet spectrophotometer at a wavelength of 610 nm and a blank zero calibration with acetone-physiological saline solution.
structure (smiles),measurement,setting,value
"Clc1ccc2c(c1)CCc1cccnc1C2=C1CCNCC1 [Desloratadine, desloratadine, reference compound]",inhibition of histamine-induced skin vascular permeability compared with the model group,"5 mg/kg, P<0.01",significantly inhibited
same,inhibition in vivo at 5 mg/kg,"Mus musculus, po, 5 mg/kg intragastric 1 hour before modeling, histamine phosphate 1 ug/0.1 mL, Evans Blue absorbance at 610 nm, read-out: Inhibition rate (%)",58.5%
